The subject of the test is H3K27me3 in Pfeiffer cells. Put plainly: H3K27 trimethylation assay. Format: cell-based. The following applies: Homo sapiens, 72 h, 3 days, Mean ± SD. As to the method: After incubation with the testing compound, H3K27 trimethylation in cells was examined with H3K27me3 Cellular Assay Kit (Cisbio, 62KC3PAE). IC50 value was calculated using GraphPad Prism by plotting the log(compound) concentrations versus percent inhibition of H3K27me3.

Take `CCN(c1cc(-c2ccc(CN3CCOCC3)cc2)cc(C(=O)NCc2c(C)cc(C)[nH]c2=O)c1C)C1CCOCC1` [EPZ-6438, reference compound]: the IC50 (usually the point on the concentration scale where inhibition reaches its midpoint) was 4.13 ± 0.59 nM.

The record behind these values is paper PMC8428225 (Cancers, 2021).
